Earlier results on 7 compounds are cited in article PMC12810351, “Structure-effect relationship of phenolic compounds on α-amylase inhibition studied by isothermal titration calorimetry” (Current Research in Food Science, 2025).

The subject of series [1] is α-amylase. The conditions noted are these: substrate starch, DNS UV/Vis, cited from earlier work.
Series [2] relates to α-amylase. Set-up: method as in Kaeswurm et al. (2019). The settings on record: substrate GalG2CNP, CNP UV/Vis; ref Kaeswurm et al. (2019); cited from earlier work.
In series [3] the test system is α-amylase. Details: method as in Narita and Inouye (2011). The conditions noted are these: substrate G2-pNP, pNP UV/Vis; ref Narita and Inouye (2011); cited from earlier work.

Where two headings read alike, the source gives them in different places.

For the compound `OC[C@H]1O[C@@H](Oc2cc3c(O)cc(O)cc3[o+]c2-c2ccc(O)c(O)c2)[C@H](O)[C@@H](O)[C@@H]1O` [CYD-3-glc, cyanidin-3-O-glucoside], the inhibition type entry in the series on α-amylase [1] (ref Sui et al. (2016)) was “competitive”. Regarding `O=C(/C=C/c1ccc(O)c(O)c1)O[C@@H]1C[C@](O)(C(=O)O)C[C@@H](O)[C@H]1O` [CA, Chlorogenic acid], the inhibition type entry in the series with α-amylase [2] and with α-amylase [3] was “mixed” in each case. As to `COc1cc(/C=C/C(=O)O)ccc1O` [FA, ferulic acid], in the series on α-amylase [3], the inhibition type result is “mixed”. For the compound `O=c1c(O[C@@H]2O[C@H](CO)[C@@H](O)[C@H](O)[C@H]2O)c(-c2ccc(O)c(O)c2)oc2cc(O)cc(O)c12` [Q-3-glc, quercetin-3-O-glucoside], the inhibition type entry in the series on α-amylase [1] (ref Li et al. (2009)) was “competitive”.

On to `O=C(O[C@@H]1Cc2c(O)cc(O)cc2O[C@@H]1c1cc(O)c(O)c(O)c1)c1cc(O)c(O)c(O)c1` [EGCG, epigallocatechin gallate], for which the inhibition type entry in the series with α-amylase [2] is listed as “mixed”. For `C[C@@H]1O[C@@H](OC[C@H]2O[C@@H](Oc3c(-c4ccc(O)c(O)c4)oc4cc(O)cc(O)c4c3=O)[C@H](O)[C@@H](O)[C@@H]2O)[C@H](O)[C@H](O)[C@H]1O` [rutin, quercetin-3-O-rutinoside], the inhibition type result with α-amylase [1] (ref Li et al. (2009)) is “competitive”. Turning to `O=C(CCc1ccc(O)cc1)c1c(O)cc(O)cc1O[C@@H]1O[C@H](CO)[C@@H](O)[C@H](O)[C@H]1O` [PHL, phlorizin], in the series with α-amylase [2], the inhibition type result is on record as “mixed”.
